This note sets out measurements from patent publication US20030068675.

The Kd is the equilibrium constant for the complex coming apart.

Positions count from the first letter of the chain named. Protein sequences can lack the tags named with them.

What all share (test): EMSA
Common to all, as to conditions: purified recombinant protein; protein details: MBP fusion
(A gel shift assay detects complexes by their altered migration in electrophoresis.)

One series has as its system T1, ZFP SBS#497 (synthetic).
T1 sequence: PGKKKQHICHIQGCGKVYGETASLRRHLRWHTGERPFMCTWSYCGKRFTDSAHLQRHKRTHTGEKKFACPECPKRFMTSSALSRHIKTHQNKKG

The subject of a further series is T2, ZFP SBS#432 (synthetic).
T2 sequence: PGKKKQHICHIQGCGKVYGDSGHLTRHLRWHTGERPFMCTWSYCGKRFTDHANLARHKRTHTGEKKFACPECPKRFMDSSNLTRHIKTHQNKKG

A further series deals with T3, ZFP SBS#580 (synthetic).
T3 sequence: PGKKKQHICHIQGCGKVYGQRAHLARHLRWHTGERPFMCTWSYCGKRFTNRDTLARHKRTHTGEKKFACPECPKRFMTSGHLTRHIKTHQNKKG

In another series the test system is T4, ZFP SBS#561 (synthetic).
T4 sequence: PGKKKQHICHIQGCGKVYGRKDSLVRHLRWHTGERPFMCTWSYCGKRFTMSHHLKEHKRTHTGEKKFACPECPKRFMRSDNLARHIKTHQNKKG

For a further series, the system named is T5, ZFP SBS#445 (synthetic).
T5 sequence: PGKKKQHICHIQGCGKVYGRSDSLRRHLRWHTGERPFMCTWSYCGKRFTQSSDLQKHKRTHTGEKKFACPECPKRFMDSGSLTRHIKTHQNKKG

The subject of the next series is T6, ZFP SBS#214 (synthetic).
T6 sequence: T3 sequence with N50Q, R51S, D52S, T78N, S79R, G80D, H81T, T83A

Another series relates to T7, ZFP SBS#213 (synthetic).
T7 sequence: T3 sequence with N50Q, R51S, D52S, T78Q, G80S, H81A, T83A

In the next series the test system is T8, ZFP SBS#348 (synthetic).
T8 sequence: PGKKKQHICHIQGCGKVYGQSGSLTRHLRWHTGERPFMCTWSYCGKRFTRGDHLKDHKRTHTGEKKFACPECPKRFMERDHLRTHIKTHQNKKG

The subject of a further series is T9, ZFP SBS#347 (synthetic).
T9 sequence: T8 sequence with D80Q, R83A

For another series, the system named is T10, ZFP SBS#203 (synthetic).
T10 sequence: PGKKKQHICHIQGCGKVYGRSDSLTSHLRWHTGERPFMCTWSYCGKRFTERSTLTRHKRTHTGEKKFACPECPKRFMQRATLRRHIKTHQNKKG

In another series the test system is T11, ZFP SBS#202 (synthetic).
T11 sequence: T10 sequence with T81D, R83A

Another series has as its system T12, ZFP SBS#201 (synthetic).
T12 sequence: T10 sequence with T81D

The next series relates to T13, ZFP SBS#204 (synthetic).
T13 sequence: T10 sequence with R83A

In a further series the test system is T14, ZFP SBS#215 (synthetic).
T14 sequence: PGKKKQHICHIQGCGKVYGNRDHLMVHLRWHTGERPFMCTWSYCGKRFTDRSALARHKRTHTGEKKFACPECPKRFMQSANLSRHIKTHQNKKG

The subject of the next series is T15, ZFP SBS#326 (synthetic).
T15 sequence: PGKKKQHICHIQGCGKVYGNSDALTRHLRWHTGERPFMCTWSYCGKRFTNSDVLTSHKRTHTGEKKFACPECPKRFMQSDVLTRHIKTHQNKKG

As for GTTTGCGTC (double strand), the Kd with ZFP SBS#497 (synthetic) is greater than 1000 nM.
As to GACGACGGC (double strand), the dissociation constant Kd with ZFP SBS#432 (synthetic) was greater than 1000 nM.
As to GGTGTTGGAG (double strand), in the series with ZFP SBS#580 (synthetic), the equilibrium dissociation constant (Kd) was greater than 1000 nM.
GAGTGTGTGA (double strand): the dissociation constant Kd in the series on ZFP SBS#561 (synthetic) is greater than 1000 nM.
For GTCGCAGTGA (double strand), the Kd in the series on ZFP SBS#445 (synthetic) was greater than 1000 nM.
Take GTTGCTGGA (double strand): the dissociation constant Kd with ZFP SBS#214 (synthetic) and with ZFP SBS#213 (synthetic) was greater than 1000 nM in each case.
Turning to TGCGGGGCAA (double strand), the Kd in the series on ZFP SBS#348 (synthetic) and with ZFP SBS#347 (synthetic) was greater than 1000 nM in each case.
Regarding GCAGCCTTG (double strand), the equilibrium dissociation constant (Kd) in the series on ZFP SBS#203 (synthetic), with ZFP SBS#202 (synthetic), in the series with ZFP SBS#201 (synthetic) and in the series with ZFP SBS#204 (synthetic) was greater than 1000 nM in each case.
For GAAGTCTGT (double strand), the equilibrium dissociation constant (Kd) in the series on ZFP SBS#215 (synthetic) is greater than 1000 nM.
GTATCTGTT (double strand): in the series on ZFP SBS#326 (synthetic), the Kd was greater than 1000 nM.
